Measured values as given in PMC7305185.
No constants are given. Whether binding was seen depends on the method and setting. Some binding calls cover weakened binding; strength is not graded here.

Protein sequences, listed by entry. Tags and fused reporters are not part of them.
UniProt P06730: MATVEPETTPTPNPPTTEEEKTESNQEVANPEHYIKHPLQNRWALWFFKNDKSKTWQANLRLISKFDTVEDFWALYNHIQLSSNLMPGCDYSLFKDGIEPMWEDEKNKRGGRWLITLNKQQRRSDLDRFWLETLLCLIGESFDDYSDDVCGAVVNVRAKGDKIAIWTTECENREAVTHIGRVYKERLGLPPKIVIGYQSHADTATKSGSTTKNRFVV

B1: pT37/pT46/pS83 4E-BP2 (S65A/T70A) (protein, UniProt Q13542 1-120)
chain: MSSSAGSGHQPSQSRAIPTRTVAISDAAQLPHDYCTTPGGTLFSTTPGGTRIIYDRKFLLDRRNAPMAQAPPCHLPNIPGVTSPGTLIEDSKVEVNNLNNLNNHDRKHAVGDDAQFEMDI
modifications: phosphothreonine at 37 and 46; phosphoserine at 83
B2: pT37/pT46/pT70 4E-BP2 (S65A/S83A) (protein, UniProt Q13542 1-120)
chain: MSSSAGSGHQPSQSRAIPTRTVAISDAAQLPHDYCTTPGGTLFSTTPGGTRIIYDRKFLLDRRNAPMAQTPPCHLPNIPGVTAPGTLIEDSKVEVNNLNNLNNHDRKHAVGDDAQFEMDI
modifications: phosphothreonine at 37, 46 and 70
B3: pT37/pT46/pS65 4E-BP2 (T70A/S83A) (protein, UniProt Q13542 1-120)
chain: MSSSAGSGHQPSQSRAIPTRTVAISDAAQLPHDYCTTPGGTLFSTTPGGTRIIYDRKFLLDRRNSPMAQAPPCHLPNIPGVTAPGTLIEDSKVEVNNLNNLNNHDRKHAVGDDAQFEMDI
modifications: phosphothreonine at 37 and 46; phosphoserine at 65
B4: pT37/pT46/pT70/pS83 4E-BP2 (S65A) (protein, UniProt Q13542 1-120)
chain: MSSSAGSGHQPSQSRAIPTRTVAISDAAQLPHDYCTTPGGTLFSTTPGGTRIIYDRKFLLDRRNAPMAQTPPCHLPNIPGVTSPGTLIEDSKVEVNNLNNLNNHDRKHAVGDDAQFEMDI
modifications: phosphothreonine at 37, 46 and 70; phosphoserine at 83
B5: pT37/pT46/pS65/pT70 4E-BP2 (S83A) (protein, UniProt Q13542 1-120)
chain: MSSSAGSGHQPSQSRAIPTRTVAISDAAQLPHDYCTTPGGTLFSTTPGGTRIIYDRKFLLDRRNSPMAQTPPCHLPNIPGVTAPGTLIEDSKVEVNNLNNLNNHDRKHAVGDDAQFEMDI
modifications: phosphothreonine at 37, 46 and 70; phosphoserine at 65
B6: pT37/pT46/pS65/pS83 4E-BP2 (T70A) (protein, UniProt Q13542 1-120)
chain: MSSSAGSGHQPSQSRAIPTRTVAISDAAQLPHDYCTTPGGTLFSTTPGGTRIIYDRKFLLDRRNSPMAQAPPCHLPNIPGVTSPGTLIEDSKVEVNNLNNLNNHDRKHAVGDDAQFEMDI
modifications: phosphothreonine at 37 and 46; phosphoserine at 65 and 83

These binders were tested against eukaryotic translation initiation factor 4E (eIF4E) (UniProt P06730) (assay: ITC; MicroCal ITC200; data collection as detailed in ref. 11; KD as mean and standard deviation of repeat samples (n = 3 for 5p-4E-BP2, n = 2 or 1 for the other variants); both purified).

binding, binds:
B1, B2, B3, B4, B5, B6
